Some of the results follow. Residues, ends and D or L forms follow the SMILES beside them. *: point of attachment. Cbz = O=C(OCc1ccccc1)*
Key:
Assay in all cases: log2 fold change, soluble protein after heating vs DMSO (PISA); higher = thermal stabilisation; K562 cells, 10 uM, 30 min; active = over 0.2 and 3.5 SD of the protein, either way, in both replicates (recomputed)
IRAK-1-4 Inhibitor I = compound: C1COCCN1CCN2C3=CC=CC=C3N=C2NC(=O)C4=CC(=CC=C4)[N+](=O)[O-] [IRAK-1-4 Inhibitor I]
Summary of the method: (§1)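 K562 cells (2×10^6 cells/mL) were treated with 10 μM compound for 30 min, and aliquots were heated for 3 min over 48°C-58°C. Pooled aliquots were extracted in PBS with 0.5% NP-40 at 4°C, and the supernatant after 21,000xg for 90 min was measured by TMTpro 16plex LC-MS/MS with channel sums equalised. Reported thermal stability, relative to control samples and from duplicates, is a log2 fold change.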

The chains behind the UniProt entries cited, without tags or fusion partners. Where a name states a change or a piece, a line headed by the entry shows the natural chain unless it says otherwise.
UniProt Q13409, whole entry, looked up: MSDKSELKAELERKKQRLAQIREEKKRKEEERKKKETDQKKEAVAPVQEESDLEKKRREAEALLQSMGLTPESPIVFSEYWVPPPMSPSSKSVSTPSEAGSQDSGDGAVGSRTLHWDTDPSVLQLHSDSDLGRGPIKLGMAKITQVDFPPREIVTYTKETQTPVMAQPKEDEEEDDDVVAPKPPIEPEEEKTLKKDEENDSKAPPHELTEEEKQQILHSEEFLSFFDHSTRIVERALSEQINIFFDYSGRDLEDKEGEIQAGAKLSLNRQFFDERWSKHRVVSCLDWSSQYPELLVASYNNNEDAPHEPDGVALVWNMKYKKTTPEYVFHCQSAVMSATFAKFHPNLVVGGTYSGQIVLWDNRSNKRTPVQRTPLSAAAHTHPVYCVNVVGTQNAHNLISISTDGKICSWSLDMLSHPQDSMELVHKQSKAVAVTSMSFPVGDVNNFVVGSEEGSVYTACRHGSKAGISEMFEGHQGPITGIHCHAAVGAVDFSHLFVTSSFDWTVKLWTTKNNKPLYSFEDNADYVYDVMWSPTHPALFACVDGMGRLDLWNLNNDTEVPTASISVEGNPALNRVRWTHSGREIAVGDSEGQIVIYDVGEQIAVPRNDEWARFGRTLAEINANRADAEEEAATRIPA
UniProt Q9NXW2: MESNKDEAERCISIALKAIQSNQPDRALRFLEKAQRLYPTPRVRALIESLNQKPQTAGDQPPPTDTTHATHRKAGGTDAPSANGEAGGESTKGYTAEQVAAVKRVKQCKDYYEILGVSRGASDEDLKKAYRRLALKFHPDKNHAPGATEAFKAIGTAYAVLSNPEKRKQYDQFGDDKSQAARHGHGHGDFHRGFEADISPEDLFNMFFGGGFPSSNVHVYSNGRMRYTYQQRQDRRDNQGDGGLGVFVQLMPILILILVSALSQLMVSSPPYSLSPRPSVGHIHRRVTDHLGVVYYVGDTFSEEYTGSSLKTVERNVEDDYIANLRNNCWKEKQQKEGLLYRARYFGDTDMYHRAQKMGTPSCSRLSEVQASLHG
UniProt Q15075: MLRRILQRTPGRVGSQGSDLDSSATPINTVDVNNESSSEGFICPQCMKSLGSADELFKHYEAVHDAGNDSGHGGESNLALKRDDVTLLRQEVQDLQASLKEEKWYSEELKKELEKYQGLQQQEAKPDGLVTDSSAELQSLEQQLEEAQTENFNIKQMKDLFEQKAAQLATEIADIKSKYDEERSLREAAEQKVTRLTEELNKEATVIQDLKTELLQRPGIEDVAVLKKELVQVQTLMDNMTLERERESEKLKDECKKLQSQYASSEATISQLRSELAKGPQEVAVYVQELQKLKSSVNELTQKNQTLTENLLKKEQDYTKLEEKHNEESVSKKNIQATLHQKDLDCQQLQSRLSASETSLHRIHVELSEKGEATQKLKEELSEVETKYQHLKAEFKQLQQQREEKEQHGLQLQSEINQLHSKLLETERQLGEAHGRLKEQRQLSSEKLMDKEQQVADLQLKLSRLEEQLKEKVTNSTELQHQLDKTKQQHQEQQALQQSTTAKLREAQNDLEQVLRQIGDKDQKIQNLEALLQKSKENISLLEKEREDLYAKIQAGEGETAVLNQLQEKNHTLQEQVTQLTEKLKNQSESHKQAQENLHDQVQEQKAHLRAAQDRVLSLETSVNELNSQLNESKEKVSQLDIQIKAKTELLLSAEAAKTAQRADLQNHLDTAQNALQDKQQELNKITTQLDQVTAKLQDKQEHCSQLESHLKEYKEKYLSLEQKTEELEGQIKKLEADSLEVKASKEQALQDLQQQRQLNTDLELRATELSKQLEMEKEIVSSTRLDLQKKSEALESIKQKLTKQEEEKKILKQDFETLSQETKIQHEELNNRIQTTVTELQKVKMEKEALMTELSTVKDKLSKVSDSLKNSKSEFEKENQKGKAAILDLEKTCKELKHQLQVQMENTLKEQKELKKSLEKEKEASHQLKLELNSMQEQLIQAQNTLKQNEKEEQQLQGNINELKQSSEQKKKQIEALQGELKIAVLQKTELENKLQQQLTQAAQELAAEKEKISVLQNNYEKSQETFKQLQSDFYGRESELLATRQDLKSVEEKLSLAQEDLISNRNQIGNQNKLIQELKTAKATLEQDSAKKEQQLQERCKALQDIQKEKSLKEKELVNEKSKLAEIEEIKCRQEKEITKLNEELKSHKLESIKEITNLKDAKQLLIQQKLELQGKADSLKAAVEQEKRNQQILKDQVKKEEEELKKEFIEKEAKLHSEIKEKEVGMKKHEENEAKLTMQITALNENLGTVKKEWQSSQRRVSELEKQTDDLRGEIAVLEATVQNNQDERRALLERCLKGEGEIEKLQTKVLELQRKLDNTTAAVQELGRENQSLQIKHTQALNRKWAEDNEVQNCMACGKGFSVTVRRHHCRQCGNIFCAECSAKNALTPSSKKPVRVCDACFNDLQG
UniProt Q6P3W2: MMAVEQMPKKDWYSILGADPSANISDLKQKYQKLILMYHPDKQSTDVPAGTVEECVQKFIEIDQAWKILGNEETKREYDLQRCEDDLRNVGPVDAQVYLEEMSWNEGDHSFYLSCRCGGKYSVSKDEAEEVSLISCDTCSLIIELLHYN
UniProt Q6UX65: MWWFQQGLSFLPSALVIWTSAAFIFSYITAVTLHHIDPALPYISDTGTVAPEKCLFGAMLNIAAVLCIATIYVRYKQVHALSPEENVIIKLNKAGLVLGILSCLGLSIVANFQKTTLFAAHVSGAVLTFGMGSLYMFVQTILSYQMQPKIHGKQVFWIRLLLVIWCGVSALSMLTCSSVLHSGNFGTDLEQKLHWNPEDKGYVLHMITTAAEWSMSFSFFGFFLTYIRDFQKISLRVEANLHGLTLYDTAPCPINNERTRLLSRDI
UniProt Q4LDG9: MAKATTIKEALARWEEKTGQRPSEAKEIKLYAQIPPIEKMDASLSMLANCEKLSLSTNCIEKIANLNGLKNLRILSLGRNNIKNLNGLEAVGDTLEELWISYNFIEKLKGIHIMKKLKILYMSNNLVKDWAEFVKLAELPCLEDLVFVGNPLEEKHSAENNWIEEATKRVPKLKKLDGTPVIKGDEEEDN
UniProt Q9Y2G8: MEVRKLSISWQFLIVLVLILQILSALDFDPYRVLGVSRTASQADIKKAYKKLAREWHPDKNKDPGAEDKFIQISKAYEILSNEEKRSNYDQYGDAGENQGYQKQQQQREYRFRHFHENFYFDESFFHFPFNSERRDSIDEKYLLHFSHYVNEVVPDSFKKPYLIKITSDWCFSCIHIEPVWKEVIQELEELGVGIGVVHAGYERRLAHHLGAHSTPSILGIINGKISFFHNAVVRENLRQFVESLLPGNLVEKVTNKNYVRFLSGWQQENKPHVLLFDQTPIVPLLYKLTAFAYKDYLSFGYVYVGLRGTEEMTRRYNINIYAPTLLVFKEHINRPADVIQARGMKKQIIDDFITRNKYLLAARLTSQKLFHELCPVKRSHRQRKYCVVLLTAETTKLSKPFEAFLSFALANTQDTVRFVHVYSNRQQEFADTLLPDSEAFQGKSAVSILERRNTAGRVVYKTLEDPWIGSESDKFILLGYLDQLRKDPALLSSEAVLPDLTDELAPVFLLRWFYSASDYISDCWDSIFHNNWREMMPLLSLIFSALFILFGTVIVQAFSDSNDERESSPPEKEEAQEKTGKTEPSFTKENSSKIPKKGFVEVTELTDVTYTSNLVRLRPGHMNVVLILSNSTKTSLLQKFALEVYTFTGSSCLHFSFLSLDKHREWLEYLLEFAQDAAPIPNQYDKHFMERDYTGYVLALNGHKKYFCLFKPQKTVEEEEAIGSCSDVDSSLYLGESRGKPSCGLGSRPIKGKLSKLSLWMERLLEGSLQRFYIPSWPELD
UniProt Q7RTS9: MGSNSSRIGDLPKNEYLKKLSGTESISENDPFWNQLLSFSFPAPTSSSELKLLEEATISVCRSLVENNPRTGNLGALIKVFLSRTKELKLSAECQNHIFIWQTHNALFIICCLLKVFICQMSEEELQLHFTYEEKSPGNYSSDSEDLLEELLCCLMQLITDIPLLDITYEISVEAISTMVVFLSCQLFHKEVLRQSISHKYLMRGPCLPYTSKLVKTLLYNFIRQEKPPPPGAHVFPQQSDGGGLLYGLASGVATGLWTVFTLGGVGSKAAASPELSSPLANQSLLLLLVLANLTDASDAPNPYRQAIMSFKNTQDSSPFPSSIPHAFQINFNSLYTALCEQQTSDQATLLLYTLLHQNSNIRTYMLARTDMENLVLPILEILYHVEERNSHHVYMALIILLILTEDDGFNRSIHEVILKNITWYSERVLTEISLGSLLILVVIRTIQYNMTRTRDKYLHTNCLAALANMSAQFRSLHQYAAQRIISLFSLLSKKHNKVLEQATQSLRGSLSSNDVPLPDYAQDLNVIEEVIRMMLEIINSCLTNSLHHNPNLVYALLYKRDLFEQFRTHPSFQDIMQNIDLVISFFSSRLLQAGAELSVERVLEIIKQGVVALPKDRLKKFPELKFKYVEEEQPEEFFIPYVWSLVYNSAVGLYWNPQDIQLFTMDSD

ibrutinib = compound: C=CC(=O)N1CCC[C@@H](n2nc(-c3ccc(Oc4ccccc4)cc3)c3c(N)ncnc32)C1 [ibrutinib]
Summary of the method: as §1

[1] = compound: CC(=O)c1cnc2ccc(-c3cc(Cl)c(O)c(Cl)c3)nc2c1N[C@H]1CC[C@H](CN(C)C)CC1
Summary of the method: as §1

ralimetinib = compound: CC(C)(C)Cn1c(N)nc2ccc(-c3[nH]c(C(C)(C)C)nc3-c3ccc(F)cc3)nc21 [ralimetinib]
Summary of the method: as §1

[2] = compound: CC(C)(O)CC(=O)NCCn1ccc2ncnc(Nc3ccc(Oc4cccc(C(F)(F)F)c4)c(Cl)c3)c21
Summary of the method: as §1

[3] = compound: CC(C)C1=C2N=C(C=C(N2N=C1)NCC3=CC=CC=C3)NCCCCCCN
Summary of the method: as §1

[4] = compound: CC(C)C[C@@H](C=O)NC(=O)[C@H](CC(C)C)NC(=O)[C@H](CC(C)C)NC(=O)OCc1ccccc1
Summary of the method: as §1

pinometostat = compound: CC(C)N(C[C@H]1O[C@@H](n2cnc3c(N)ncnc32)[C@H](O)[C@@H]1O)[C@H]1C[C@@H](CCc2nc3cc(C(C)(C)C)ccc3[nH]2)C1 [pinometostat]
Summary of the method: as §1

[5] = compound: CC1=C(C2=C(C=C1)C(=O)C3=CC=CC=C3N2CCCN)C
Summary of the method: as §1

[6] = compound: CC1=C(C=C(C=C1)NC(=O)C2=CC(=CC=C2)C(C)(C)C#N)NC3=CC4=C(C=C3)N=CN(C4=O)C
Summary of the method: as §1

[7] = compound: CC1=C(C=C(C=C1)NC(=O)C2=CC(=CC=C2)N(C)C)NC(=O)C3=CC=C(C=C3)O
Summary of the method: as §1

[8] = compound: CC1=CC=C(C=C1)SC2=C3C=C(SC3=CN=C2)C(=O)N
Summary of the method: as §1

[9] = compound: CC1=NC(=CC=C1)C2=C(N=C(N2)C(C)(C)C)C3=CC4=NC=CN=C4C=C3
Summary of the method: as §1

Nexturastat A = compound: CCCCN(Cc1ccc(C(=O)NO)cc1)C(=O)Nc1ccccc1 [Nexturastat A]
Summary of the method: as §1

vemurafenib = compound: CCCS(=O)(=O)Nc1ccc(F)c(C(=O)c2c[nH]c3ncc(-c4ccc(Cl)cc4)cc23)c1F [vemurafenib]
Summary of the method: as §1

[10] = compound: CCCS(=O)(=O)Nc1ccc(F)c(C(=O)c2c[nH]c3ncc(Cl)cc23)c1F
Summary of the method: as §1

[11] = compound: CCCc1cc(C)[nH]c(=O)c1CNC(=O)c1cc(-c2ccnc(N3CCN(C)CC3)c2)cc2c1cnn2C(C)C
Summary of the method: as §1

givinostat = compound: CCN(CC)Cc1ccc2cc(COC(=O)Nc3ccc(C(=O)NO)cc3)ccc2c1 [givinostat]
Summary of the method: as §1

barasertib = compound: CCN(CCCOc1ccc2c(Nc3cc(CC(=O)Nc4cccc(F)c4)[nH]n3)ncnc2c1)CCOP(=O)(O)O [barasertib]
Summary of the method: as §1

[12] = compound: CC1=C(C(CC(=O)N1)C2=CC=C(C=C2)C(F)(F)F)C(=O)NC3=C(C=C4C(=C3)C=NN4)F
Summary of the method: as §1

Measured: log2 fold change

DYNC1I2 isoform 5 (UniProt Q13409)
inactive: IRAK-1-4 Inhibitor I 0.022 | ibrutinib 0.016 | [1] 0.022 | ralimetinib 0.013 | [2] -0.003 | [3] 0.041 | [4] 0.062 | pinometostat -0.019 | [5] -0.032 | [6] -0.008 | [7] -0.03 | [8] -0.006 | [9] 0.028 | Nexturastat A 0.043 | vemurafenib -0.009 | [10] 0.005 | [11] -0.007 | givinostat -0.005 | barasertib -0.013

DNAJB12 (UniProt Q9NXW2)
inactive: IRAK-1-4 Inhibitor I -0.026 | ibrutinib 0.004 | [1] -0.013 | [2] -0.032 | [3] -0.012 | [4] 0.076 | pinometostat 0.021 | [5] 0.022 | [6] -0.071 | [7] -0.017 | [8] -0.002 | [9] 0.017 | Nexturastat A 0.044 | vemurafenib 0.008 | [10] 0.008 | [11] -0.069 | givinostat 0.06 | barasertib -0.001
active: ralimetinib -0.767

EEA1 (UniProt Q15075)
inactive: IRAK-1-4 Inhibitor I 0.037 | ibrutinib 0.002 | [1] 0.02 | ralimetinib -0.068 | [2] 0.013 | [3] 0.025 | [4] -0.022 | pinometostat -0.041 | [5] -0.004 | [6] -0.027 | [7] 0.009 | [8] 0.009 | [9] 0.011 | Nexturastat A -0.035 | vemurafenib -0.024 | [10] 0.003 | [11] -0.036 | givinostat -0.01 | barasertib 0.009

DPYSL2 (UniProt Q16555)
inactive: IRAK-1-4 Inhibitor I -0.003 | ibrutinib 0.092 | [1] 0.024 | [2] 0.092 | [3] 0.066 | pinometostat 0.009 | [5] 0.01 | [6] -0.056 | [8] 0.03 | [9] 0.033 | Nexturastat A -0.176 | vemurafenib -0.056 | [10] -0.002 | [11] -0.065 | givinostat 0.03 | barasertib 0

Reprinted at random: two records from the list
DNAJB12 (UniProt Q9NXW2)
inactive: IRAK-1-4 Inhibitor I -0.026 | ibrutinib 0.004 | [1] -0.013 | [2] -0.032 | [3] -0.012 | [4] 0.076 | pinometostat 0.021 | [5] 0.022 | [6] -0.071 | [7] -0.017 | [8] -0.002 | [9] 0.017 | Nexturastat A 0.044 | vemurafenib 0.008 | [10] 0.008 | [11] -0.069 | givinostat 0.06 | barasertib -0.001
active: ralimetinib -0.767

EEA1 (UniProt Q15075)
inactive: IRAK-1-4 Inhibitor I 0.037 | ibrutinib 0.002 | [1] 0.02 | ralimetinib -0.068 | [2] 0.013 | [3] 0.025 | [4] -0.022 | pinometostat -0.041 | [5] -0.004 | [6] -0.027 | [7] 0.009 | [8] 0.009 | [9] 0.011 | Nexturastat A -0.035 | vemurafenib -0.024 | [10] 0.003 | [11] -0.036 | givinostat -0.01 | barasertib 0.009

(next part)

DNAJC24 (UniProt Q6P3W2)
inactive: IRAK-1-4 Inhibitor I -0.035 | ibrutinib 0.011 | ralimetinib 0.058 | [2] 0.026 | [3] -0.037 | [4] 0.058 | pinometostat -0.019 | [5] -0.023 | [6] -0.024 | [7] 0.368 | [8] 0.104 | [9] 0.008 | Nexturastat A -0.208 | vemurafenib 0.008 | [10] -0.034 | [11] 0.027 | givinostat 0.07 | barasertib 0.008

DRAM2 (UniProt Q6UX65)
inactive: IRAK-1-4 Inhibitor I -0.2 | [1] -0.156 | [2] 0.115 | pinometostat 0.144 | [5] 0.041 | [6] 0.025 | [8] -0.007 | [9] 0.154 | Nexturastat A -0.029 | vemurafenib -0.107 | [10] 0.037 | [11] -0.403

DNPEP (UniProt B9ZVU2)
inactive: IRAK-1-4 Inhibitor I -0.067 | [1] 0.157 | [3] 0.132 | pinometostat -0.066 | [5] -0.021 | [6] -0.115 | [8] -0.265 | [9] -0.059 | vemurafenib 0.045 | [10] 0.055 | [11] 0.029 | givinostat 0.036

DNAL1 (UniProt Q4LDG9)
inactive: IRAK-1-4 Inhibitor I 0.012 | ibrutinib -0.082 | [1] 0.042 | ralimetinib 0.042 | [2] 0.183 | [4] 0.007 | pinometostat 0.093 | [7] 0.049 | [9] 0.069 | Nexturastat A -0.135 | vemurafenib 0.013 | barasertib 0.012

DYNC1I2 isoform 2 (UniProt Q13409)
inactive: IRAK-1-4 Inhibitor I 0.012 | ibrutinib 0.126 | [1] 0.106 | ralimetinib 0.055 | [2] -0.133 | [3] -0.105 | [4] 0.154 | pinometostat 0.023 | [5] -0.05 | [6] 0.006 | [7] -0.054 | [8] -0.179 | [9] 0.061 | Nexturastat A 0.047 | [10] 0.018 | [11] 0.271 | givinostat 0.044 | barasertib 0.015

DNAJC16 (UniProt Q9Y2G8)
inactive: IRAK-1-4 Inhibitor I -0.005 | ibrutinib 0.063 | [1] -0.541 | [2] -0.143 | [3] -0.074 | pinometostat 0.102 | [12] 0.008 | [5] -0.038 | [6] -0.023 | [8] -0.049 | [9] -0.06 | Nexturastat A -0.001 | vemurafenib 0.042 | [10] 0.005 | givinostat 0.025 | barasertib -0.141

DYM (UniProt Q7RTS9)
inactive: IRAK-1-4 Inhibitor I 0.051 | ibrutinib -0.115 | ralimetinib 0.035 | [2] -0.235 | [3] -0.227 | [4] 0.023 | pinometostat 0.02 | [12] -0.071 | [5] 0.154 | [6] 0.015 | [7] -0.015 | [8] 0.249 | [9] 0.045 | Nexturastat A 0.011 | vemurafenib -0.011 | [10] 0.015 | [11] 0.075 | givinostat 0.116 | barasertib 0.092
